System: Ca^++ receptors
Experiment: displacement of 3H-nitrendipine from Ca++ receptors, rat brain membranes
Type: binding
Details: 3H-nitrendipine 1nM

Compound: COC(=O)C1=C(C)NC(C)=C(C(=O)OC)C1c1ccccc1[N+](=O)[O-] [nifedipine, reference compound]
- Displacement activity at receptors of Ca++: 1.2

Source: patent US4988691A (priority 1989, dated 1991)
